Patent US20250346934A1
No constants are given. Whether binding was seen depends on the method and setting. Some entries that bind do so weakly or less than the wild type.

Protein sequences, listed by entry. Tags and fused reporters are not part of them. Lines headed by an entry give the natural chain unless they say otherwise; changes in a name come on top.
UniProt A8A750: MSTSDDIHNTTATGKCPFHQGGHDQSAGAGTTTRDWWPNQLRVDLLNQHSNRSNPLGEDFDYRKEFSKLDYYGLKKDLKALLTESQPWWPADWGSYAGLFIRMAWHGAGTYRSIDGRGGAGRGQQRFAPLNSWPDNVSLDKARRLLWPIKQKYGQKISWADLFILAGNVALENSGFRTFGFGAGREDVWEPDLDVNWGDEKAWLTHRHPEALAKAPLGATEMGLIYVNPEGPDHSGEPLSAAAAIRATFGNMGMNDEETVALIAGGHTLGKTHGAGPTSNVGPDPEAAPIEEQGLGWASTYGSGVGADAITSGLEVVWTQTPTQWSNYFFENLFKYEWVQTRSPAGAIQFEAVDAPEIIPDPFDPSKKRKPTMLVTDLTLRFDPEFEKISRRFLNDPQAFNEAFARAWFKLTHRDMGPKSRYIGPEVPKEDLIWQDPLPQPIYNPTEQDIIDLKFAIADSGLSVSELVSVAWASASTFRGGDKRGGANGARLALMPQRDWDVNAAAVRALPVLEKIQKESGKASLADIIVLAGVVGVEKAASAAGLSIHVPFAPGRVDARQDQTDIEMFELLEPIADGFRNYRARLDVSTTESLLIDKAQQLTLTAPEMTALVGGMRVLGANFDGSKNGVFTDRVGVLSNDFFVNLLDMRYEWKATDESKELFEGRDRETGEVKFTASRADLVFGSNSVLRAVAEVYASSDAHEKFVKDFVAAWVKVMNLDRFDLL

Experiments:
Test in all cases: non-reducing SDS-PAGE and dynamic light scattering of a 1:2 molar mixture
[1] = target: KatG-RIDD (GGGGS)6 (Escherichia coli (W3110)) (UniProt A8A750)
[2] = target: KatG-RIDD (GGGGS)5 (Escherichia coli (W3110)) (UniProt A8A750)
[3] = target: KatG-RIDD (GGGGS)4 (Escherichia coli (W3110)) (UniProt A8A750)

Measured: binding

B1: LGOX-RIAD (GGGGS)4 (enzyme)
chain: ASGDSRGADFDRCLAVARALLVLDSDDRPLVPRYQSVLQKGLPAQRRTRPKNVLVIGAGPAGLVAAWLLKRAGHRVTVLEANGNRAGGRVKTFRSGGHERAEQPFADPRQYAEAGAMRIPGSHPLVMELIDQFELKKRRFHYVDVDSEGRPANRTWIHVNGIRVRRADYARAPRRVNRSFGVPRAHWDTPAAAILRSVLDPVRDEFSRVGRDGKRVDKPLPERLQGWARVVQRFGDWSMFRFLTEHAGLDERTIDLIGTLENLTSRLPLSFIHSFIGSSLISPDTPFYELEGGTAVLPDALLERVRKDVRFDRRVTRIQYHHPDRPSPDVEQVRSKGPHVWVDTVSEGRDGPVVREQFTADVAVVTVPFSGLRHVQIAPPLSYGKRRAVCELHYDSATKVLLEFSRRWWEFDEADWKRELRAVDPGLYDAYRTGRAAADGSLLGAHPSVPAGHITAGQRTHYAANRAVARDQPEAVDVVGGGSVSDNANRFMFHPSHPVPGSAGGVVLASYSWADDALRWDSLDDEARYPHALCGLQQVYGQRIEVFYTGAGRTQSWLRDPYAYGEASVLLPGQHTELLSAIPVAEGPLHFAGDHTSVKPAWIEGAVESAVRAALEIHTAGGGGSGGGGSGGGGSGGGGSLEQYANQLADQIIKEATEGC
binds: all assays above
